Laboratory results: PubChem BioAssay AID1508597 (Cure First, 2020)
Assay: 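Survival screen with siRNA in ovarian cancer cells derived from patients, with or without rucaparib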 (primary screen). Cell system: human ovarian carcinoma lines grown from tumours: OCI-P5x (papillary serous) and OCI-C5x (clear cell). Reagents: siRNA pool against human genes, 1.25 pmol siRNA per well. Time to read-out: 72 h or 96 h, depending on the cell culture. Treatment: rucaparib 20 µM (about IC30) or vehicle, present until read-out. Rucaparib or vehicle: Rucaparib. Cell line: OCI-C5x (clear cell). Measured: 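Luminescent ATP-based viability assay read 72 or 96 h after transfection, depending on culture, given as normalised percent viability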. Direction: viability, normalised: higher = more viable cells remaining. Rule for the call: 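a well counts as a hit if its normalised viability is under 80 percent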. Calls: active = viability under 80%; inactive = viability 80% or more.
Shown is a random part of the about 2,100 reagents, under one of the conditions tested. 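Calls flag viability under 80% in either arm, not effects specific to rucaparib; the reference for percent is not stated.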 The record does not give: the 100% reference.

gene knocked down | technical replicate | viability, normalised (%) | Call
ELANE (elastase, neutrophil expressed) | 1 | 43 | active
ELANE (elastase, neutrophil expressed) | 2 | 49.3 | active
ELANE (elastase, neutrophil expressed) | 3 | 45.9 | active
WNK3 (WNK lysine deficient protein kinase 3) | 1 | 80.1 | inactive
WNK3 (WNK lysine deficient protein kinase 3) | 2 | 68.3 | active
WNK3 (WNK lysine deficient protein kinase 3) | 3 | 69.1 | active
HAT1 (histone acetyltransferase 1) | 1 | 67.7 | active
HAT1 (histone acetyltransferase 1) | 2 | 59.9 | active
HAT1 (histone acetyltransferase 1) | 3 | 56.9 | active
MAP3K3 (mitogen-activated protein kinase kinase kinase 3) | 1 | 70.7 | active
MAP3K3 (mitogen-activated protein kinase kinase kinase 3) | 2 | 70.7 | active
MAP3K3 (mitogen-activated protein kinase kinase kinase 3) | 3 | 63 | active
ARID4B (AT-rich interaction domain 4B) | 1 | 50.5 | active
ARID4B (AT-rich interaction domain 4B) | 2 | 57.9 | active
ARID4B (AT-rich interaction domain 4B) | 3 | 33.3 | active
DNA2 (DNA replication helicase/nuclease 2) | 1 | 83 | inactive
DNA2 (DNA replication helicase/nuclease 2) | 2 | 99.7 | inactive
DNA2 (DNA replication helicase/nuclease 2) | 3 | 89.5 | inactive
HM13 (histocompatibility minor 13) | 1 | 33.1 | active
HM13 (histocompatibility minor 13) | 2 | 37 | active
HM13 (histocompatibility minor 13) | 3 | 34.1 | active
SMARCA1 (SNF2 related chromatin remodeling ATPase 1) | 1 | 40.1 | active
SMARCA1 (SNF2 related chromatin remodeling ATPase 1) | 2 | 37.9 | active
SMARCA1 (SNF2 related chromatin remodeling ATPase 1) | 3 | 45 | active
FN3K (fructosamine 3 kinase) | 1 | 51 | active
FN3K (fructosamine 3 kinase) | 2 | 54.8 | active
FN3K (fructosamine 3 kinase) | 3 | 49.5 | active
PADI4 (peptidyl arginine deiminase 4) | 1 | 39.3 | active
PADI4 (peptidyl arginine deiminase 4) | 2 | 46.3 | active
PADI4 (peptidyl arginine deiminase 4) | 3 | 47.7 | active
NPM2 (nucleophosmin/nucleoplasmin 2) | 1 | 62.9 | active
NPM2 (nucleophosmin/nucleoplasmin 2) | 2 | 61.1 | active
NPM2 (nucleophosmin/nucleoplasmin 2) | 3 | 44.4 | active
NDEL1 (nudE neurodevelopment protein 1 like 1) | 1 | 51.1 | active
NDEL1 (nudE neurodevelopment protein 1 like 1) | 2 | 52.9 | active
NDEL1 (nudE neurodevelopment protein 1 like 1) | 3 | 37.9 | active
RAE1 (ribonucleic acid export 1) | 1 | 48.7 | active
RAE1 (ribonucleic acid export 1) | 2 | 41.3 | active
RAE1 (ribonucleic acid export 1) | 3 | 38.6 | active
INO80C (INO80 complex subunit C) | 1 | 55.6 | active
INO80C (INO80 complex subunit C) | 2 | 50.9 | active
INO80C (INO80 complex subunit C) | 3 | 46.3 | active
MORF4L1 (mortality factor 4 like 1) | 1 | 52.1 | active
MORF4L1 (mortality factor 4 like 1) | 2 | 49.8 | active
MORF4L1 (mortality factor 4 like 1) | 3 | 44.7 | active
CHMP4A (charged multivesicular body protein 4A) | 1 | 59.5 | active
CHMP4A (charged multivesicular body protein 4A) | 2 | 56.5 | active
CHMP4A (charged multivesicular body protein 4A) | 3 | 38.3 | active
STC1 (stanniocalcin 1) | 1 | 55 | active
STC1 (stanniocalcin 1) | 2 | 57.5 | active
STC1 (stanniocalcin 1) | 3 | 70.3 | active
POLI (DNA polymerase iota) | 1 | 52.7 | active
POLI (DNA polymerase iota) | 2 | 53.8 | active
POLI (DNA polymerase iota) | 3 | 42.6 | active
DDX47 (DEAD-box helicase 47) | 1 | 57.7 | active
DDX47 (DEAD-box helicase 47) | 2 | 42.6 | active
DDX47 (DEAD-box helicase 47) | 3 | 46.7 | active

Quoted from the entries so far (5 entries):
gene knocked down | technical replicate | viability, normalised (%) | Call
RAE1 (ribonucleic acid export 1) | 2 | 41.3 | active
RAE1 (ribonucleic acid export 1) | 3 | 38.6 | active
INO80C (INO80 complex subunit C) | 1 | 55.6 | active
INO80C (INO80 complex subunit C) | 2 | 50.9 | active
INO80C (INO80 complex subunit C) | 3 | 46.3 | active
